At least one compound was matched to its structure with a doubt left.
Key:
[1] = tested on: MV-4-11 cells; test: Proliferation assay A (spheroid assay) MV-4-11; type: cell-based, human; details: 8 d, AUC of confluence against time, absolute IC50
Protocol: (§1) 3a) Proliferation Assay A
(§2) The anti-proliferative effect of menin/MLL protein/protein interaction inhibitor test compounds was assessed in human leukemia cell lines. The cell lines MV-4-11 and MOLM14 harbor MLL translocations and express the MLL fusion proteins MLL-AF4 and MLL-AF9, respectively, as well as the wildtype protein from the second allele. […] K562 was used as a control cell line containing two MLL wildtype alleles in order to exclude compounds that display general cytotoxic effects.
(§3) MV-4-11 and MOLM14 were cultured in RPMI-1640 (Sigma Aldrich) supplemented with 10% fetal bovine serum (HyClone), 2 mM L-glutamine (Sigma Aldrich) and 50 μg/ml gentamycin (Gibco). […]
(§4) In order to assess the anti-proliferative effects, 1,500 MV-4-11, 300 MOLM14 or 750 K562 cells were seeded in 200 μl media per well in 96-well round bottom, ultra-low attachment plates (Costar, catalogue number 7007). […] Spheroid like growth was monitored in real-time by live-cell imaging (IncuCyteZOOM, Essenbio, 4× objective) acquiring one image every four hours for 8 d. Confluence (%) as a measure of spheroid size was determined using an integrated analysis tool.
(§5) In order to determine the cumulative effect of the test compounds over time, the area under the curve (AUC) in a plot of confluence against time was calculated. […]
(§6) Absolute IC50 values were calculated according to the following procedure: […]

[2] = tested on: MOLM14 cells; test: Proliferation assay A (spheroid assay) MOLM14; type: cell-based, human; details: 8 d, AUC of confluence against time, absolute IC50
Protocol: as §1, §2, §3, §4, §5, §6

Structure (SMILES) | (3a) Spheroid assay MV-4-11 (IC50(μM)) Assay A [1] | (3a) Spheroid assay MOLM14 (IC50(μM)) Assay A [2]
COc1nc(N2CCC3(CC(NCc4ccccc4)C3)C2)c2cc(CC(F)(F)F)sc2n1 (single isomer, unassigned) [Compound 60] | 3.2.0 μM | –
O=c1[nH]c2ccc(CN[C@H]3CCC4(C3)CN(c3ncnc5sc(CC(F)(F)F)cc35)C4)cc2[nH]1 (single isomer, unassigned) [Compound 109] | – | 3.2.4 μM
